# Data published in PubChem BioAssay (NCATS).
# Inconclusive results, whose numbers are uncertain, are shown with a selection of clear calls. Where the call is inconclusive, the potency comes from a doubtful curve fit. Activity calls are given as the source filed them. Calls follow the shape of the dose curve; as a rule, active = well fitted inhibition curve with a large enough effect; inconclusive = small, poorly fitted or top-dose-only effect; inactive = no such curve, though single readings can be large or run the other way.
# Target: Aldehyde dehydrogenase 1A1 (Homo sapiens) (UniProt P00352)
# Test: qHTS for Inhibitors of the Aldehyde Dehydrogenase Family (ALDH1A1) Confirmatory screens (AID 2061316); also: nearly all actives have a fitted effect of over 65% in size
# Conditions: ALDH inhibition qHTS; activity change, negative = inhibition: at 47.3 µM (top of the series); series mostly up to 47.3 µM
# % is scaled to controls: 0 for no effect and ±100 for the full control effect; potency is read from the fitted curve at half-maximal effect.
Compound,Potency,"activity change, negative = inhibition"
NC(=O)C1CCN(c2ncc(-c3ccc(Cl)cc3)s2)CC1,"inconclusive: 17.9 µM [inhibitor, partial curve, poor fit]",
Cc1ccc(-c2cc(C(=O)NCc3cccc(F)c3)nn3cnnc23)cc1,"inconclusive: 18.2 µM [inhibitor, partial curve]",
COc1ccc(C2Nc3ccccc3C(=O)N2Cc2ccccc2)cc1COc1ccc(C(N)=O)cc1 (centres undefined),"inconclusive: 35.5 µM [inhibitor, partial curve, poor fit]",
Cc1ccc(-c2cc(C(=O)Nc3cccc(S(N)(=O)=O)c3)c3ccccc3n2)cc1C,"inconclusive: 28.3 µM [inhibitor, partial curve]",
COc1cc(O)cc2c1C(=O)OC(C)CCCCCCC2 (centres undefined),"inconclusive: 22.5 µM [inhibitor, partial curve]",
COc1cccc(-c2cccc(C(=O)N3CCN(C(=O)Nc4ccccc4)CC3)c2)c1,"inconclusive: 20.5 µM [inhibitor, partial curve]",
COc1ccc(C2=Nn3c(nnc3-c3ccccc3OC)SC2)cc1,"inconclusive: 11.3 µM [inhibitor, partial curve]",
O=C(Nc1ncc(Cc2ccc(C(F)(F)F)cc2)s1)c1ccc(-c2ccc([N+](=O)[O-])cc2)o1,"inconclusive: 22.5 µM [inhibitor, partial curve]",
[O-][n+]1onc(-c2ccccc2)c1/C=N/O,,inactive: -19%

# Rewritten with bars between the fields: entries from further up.
Compound | Potency | activity change, negative = inhibition
Cc1ccc(-c2cc(C(=O)Nc3cccc(S(N)(=O)=O)c3)c3ccccc3n2)cc1C | inconclusive: 28.3 µM [inhibitor, partial curve] | 
COc1cc(O)cc2c1C(=O)OC(C)CCCCCCC2 (centres undefined) | inconclusive: 22.5 µM [inhibitor, partial curve] | 
